These are yes or no findings as the source states them, for the method shown. In cells and extracts the contact can be indirect. Sequences can lack the tags named with a protein.

By UniProt entry, the sequences of proteins in these tests, tags left out.
UniProt Q01371: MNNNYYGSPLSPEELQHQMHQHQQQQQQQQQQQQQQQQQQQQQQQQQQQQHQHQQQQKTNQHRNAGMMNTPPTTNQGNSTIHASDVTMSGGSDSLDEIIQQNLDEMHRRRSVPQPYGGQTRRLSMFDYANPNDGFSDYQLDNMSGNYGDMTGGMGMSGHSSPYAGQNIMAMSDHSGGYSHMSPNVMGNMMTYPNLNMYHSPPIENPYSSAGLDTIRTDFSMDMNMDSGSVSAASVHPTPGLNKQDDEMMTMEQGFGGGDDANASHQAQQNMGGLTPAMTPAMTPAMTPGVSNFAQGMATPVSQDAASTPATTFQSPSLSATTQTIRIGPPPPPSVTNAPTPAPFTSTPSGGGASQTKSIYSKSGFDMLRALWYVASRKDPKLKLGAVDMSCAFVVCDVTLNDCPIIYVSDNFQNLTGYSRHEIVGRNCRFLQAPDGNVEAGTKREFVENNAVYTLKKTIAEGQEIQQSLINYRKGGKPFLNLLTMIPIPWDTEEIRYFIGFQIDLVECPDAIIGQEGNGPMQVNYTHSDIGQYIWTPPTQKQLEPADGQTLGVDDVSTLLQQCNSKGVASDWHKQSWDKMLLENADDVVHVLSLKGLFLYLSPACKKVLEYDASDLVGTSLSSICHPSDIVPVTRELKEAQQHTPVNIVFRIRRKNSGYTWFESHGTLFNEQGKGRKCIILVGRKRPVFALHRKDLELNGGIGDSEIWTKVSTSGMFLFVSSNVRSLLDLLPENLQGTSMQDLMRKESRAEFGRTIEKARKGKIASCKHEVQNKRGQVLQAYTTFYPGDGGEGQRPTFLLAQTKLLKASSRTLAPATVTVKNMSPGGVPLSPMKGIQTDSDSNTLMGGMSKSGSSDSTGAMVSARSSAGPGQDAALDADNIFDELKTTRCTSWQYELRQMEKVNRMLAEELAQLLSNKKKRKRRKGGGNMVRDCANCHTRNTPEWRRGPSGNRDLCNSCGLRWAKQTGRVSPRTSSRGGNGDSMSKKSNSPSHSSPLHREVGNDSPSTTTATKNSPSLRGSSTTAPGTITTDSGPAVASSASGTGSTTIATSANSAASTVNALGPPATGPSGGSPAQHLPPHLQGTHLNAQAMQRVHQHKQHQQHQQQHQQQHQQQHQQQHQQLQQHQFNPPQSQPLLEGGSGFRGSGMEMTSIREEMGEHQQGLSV

Here are results for one substance from paper PMC9238092.

The target in this experiment is T1, VE-1 tagged with the FLAG epitope (ve-1^FLAG allele) (N. crassa) (UniProt Q1K5S5).
T1 sequence: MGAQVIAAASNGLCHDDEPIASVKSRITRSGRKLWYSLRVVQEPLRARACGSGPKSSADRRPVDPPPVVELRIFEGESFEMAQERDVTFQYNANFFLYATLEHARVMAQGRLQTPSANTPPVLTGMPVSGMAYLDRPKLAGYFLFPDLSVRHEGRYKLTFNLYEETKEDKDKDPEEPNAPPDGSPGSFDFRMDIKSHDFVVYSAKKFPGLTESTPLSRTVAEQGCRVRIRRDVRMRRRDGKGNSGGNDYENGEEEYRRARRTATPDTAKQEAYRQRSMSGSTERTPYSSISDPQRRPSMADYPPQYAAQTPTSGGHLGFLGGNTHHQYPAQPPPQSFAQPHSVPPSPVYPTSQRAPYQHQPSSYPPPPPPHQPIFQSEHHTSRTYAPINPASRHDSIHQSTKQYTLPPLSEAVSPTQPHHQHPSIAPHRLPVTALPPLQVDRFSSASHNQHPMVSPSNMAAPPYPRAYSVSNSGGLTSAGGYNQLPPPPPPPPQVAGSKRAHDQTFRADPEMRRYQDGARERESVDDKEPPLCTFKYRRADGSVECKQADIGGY
In words: co-IP; VE-1 FLAG precipitated with M2-FLAG agarose beads from extracts of formaldehyde-fixed vegetative mycelia of the ve-1^FLAG strain (48 h, 30 °C; light, dark or dark then 30 min light); IPB buffer (50 mM Tris-HCl pH 7.5, 150 mM NaCl, 1.5 mM MgCl2, 0.1% NP-40), 3 h at 4 °C; western blot for WC-1.

Regarding “WC-1, blue-light photoreceptor and Zn-finger transcription factor (from UniProt Q01371 1-1167)”, the binding entry is “no binding”.
